# Results as given in patent US20120094958A1, “QUINOLINES AS INHIBITORS OF FARNESYL PYROPHOSPHATE SYNTHASE” (NOVARTIS AG, priority 2008, published 2012).
# Chains of the proteins cited; added tags and fusions are not shown. Residues count along the entry.
# UniProt P14324, 67-419: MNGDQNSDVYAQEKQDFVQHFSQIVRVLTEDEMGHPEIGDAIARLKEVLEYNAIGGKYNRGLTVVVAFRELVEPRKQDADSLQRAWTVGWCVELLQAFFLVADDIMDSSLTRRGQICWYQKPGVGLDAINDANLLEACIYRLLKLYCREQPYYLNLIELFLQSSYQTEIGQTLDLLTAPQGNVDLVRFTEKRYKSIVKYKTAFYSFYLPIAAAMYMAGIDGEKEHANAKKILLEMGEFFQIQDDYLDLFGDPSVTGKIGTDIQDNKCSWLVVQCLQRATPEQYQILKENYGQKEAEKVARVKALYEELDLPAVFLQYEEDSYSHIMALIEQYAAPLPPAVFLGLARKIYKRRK
# The match of structure and compound is tentative.
# Target: FPPS (Farnesyl pyrophosphate synthase) (Homo sapiens, UniProt P14324)
# Experiment: FPPS Assay: LC-MS Method
# Type: biochemical
# Details: read-out: FPPS IC50, GPP/IPP 5 μM each, reaction stopped after 10 minutes, tested form: TFA
smiles,measurement,value
CC(C)(C)OC(=O)NC(C(=O)Nc1cc(-c2cccc3ccccc23)c2nc(/C=C/P(=O)(O)O)ccc2c1)C(C)(C)C (stereo not shown),IC50,570 nM
